Record: PubChem BioAssay AID504764 (Drosophila RNAi Screening Center, 2011)

Screen: 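Genome-wide screen for regulators of Notch-driven gene expression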 (primary screen)
System: Drosophila Kc167 cells
Knock-down reagent: long dsRNA against Drosophila genes
Timing: about 5 days (4 days dsRNA, then 24 h after transfection)
Treatment: transfection of constitutively active membrane-tethered Notch lacking the extracellular domain, read 24 h later
Detection: 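Light from a Notch-responsive E(spl)m3 luciferase reporter under active Notch, with control-promoter and no-Notch reporter wells to normalise; raw counts from paired wells a and b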
Direction: induced reporter light, run 1, well a and induced reporter light, run 1, well b: higher = more light from the Notch target reporter with active Notch; control promoter light, run 1, well a and control promoter light, run 1, well b: higher = more light from the viral control promoter (cell number, transfection, viability); uninduced reporter light, run 1, well a: higher = more light from the Notch target reporter without active Notch
Call rule: 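Wells with low control signal or poorly matching duplicates excluded; duplicates averaged; per source plate, z beyond ±2 for induced/control log2 ratio or beyond ±1.8 for induced/uninduced marks a hit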
Calls: active = modifier hit (raised or lowered Notch signal); inactive = not a hit
The screen tested about 22,000 reagents; this is a random part of those with a known target gene and a result. In the full data, 403 (1.9%) are marked active. 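Unnormalised raw counts per well; ratio z-scores behind the hit calls and whether each hit raises or lowers signal are not deposited.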 Not stated in the record: the amount of reagent.

Knock-down of Gr59d (Gustatory receptor 59d) [DRSC22553] gave: active. Against CG11106 [DRSC19381], the entry reads induced reporter light, run 1, well a = 1.08e5; induced reporter light, run 1, well b = 1.01e5; control promoter light, run 1, well a = 1.11e5; control promoter light, run 1, well b = 1.44e5; uninduced reporter light, run 1, well a = 7945; inactive. Knock-down of ush (u-shaped) [DRSC00843] gave: induced reporter light, run 1, well a = 1.78e5; induced reporter light, run 1, well b = 1.50e5; control promoter light, run 1, well a = 1.89e5; control promoter light, run 1, well b = 1.73e5; uninduced reporter light, run 1, well a = 15470; inactive. With knock-down of CG32409 [DRSC08780] the results were induced reporter light, run 1, well a = 2.31e5; induced reporter light, run 1, well b = 2.42e5; control promoter light, run 1, well a = 2.67e5; control promoter light, run 1, well b = 2.14e5; uninduced reporter light, run 1, well a = 17950; inactive. With knock-down of exp (expansion) [DRSC06313] the results were induced reporter light, run 1, well a = 29100; induced reporter light, run 1, well b = 31120; control promoter light, run 1, well a = 31445; control promoter light, run 1, well b = 31430; uninduced reporter light, run 1, well a = 5035; inactive. After knock-down of Dhc16F (Dynein heavy chain at 16F) [DRSC20242], the record shows induced reporter light, run 1, well a = 66850; induced reporter light, run 1, well b = 44165; control promoter light, run 1, well a = 68980; control promoter light, run 1, well b = 67680; uninduced reporter light, run 1, well a = 10705; inactive.

With knock-down of BBS5 (Bardet-Biedl syndrome 5) [DRSC12168], the record shows induced reporter light, run 1, well a = 1.21e5; induced reporter light, run 1, well b = 1.08e5; control promoter light, run 1, well a = 1.00e5; control promoter light, run 1, well b = 1.15e5; uninduced reporter light, run 1, well a = 8935; inactive. CG17637 [DRSC11740] scored induced reporter light, run 1, well a = 1.08e5; induced reporter light, run 1, well b = 78600; control promoter light, run 1, well a = 58095; control promoter light, run 1, well b = 57240; uninduced reporter light, run 1, well a = 6155; inactive.

3 entries from above, set out differently.
gene,dsRNA,"induced reporter light, run 1, well a","induced reporter light, run 1, well b","control promoter light, run 1, well a","control promoter light, run 1, well b","uninduced reporter light, run 1, well a",Outcome
Dhc16F (Dynein heavy chain at 16F),DRSC20242,66850,44165,68980,67680,10705,inactive
BBS5 (Bardet-Biedl syndrome 5),DRSC12168,1.21e5,1.08e5,1.00e5,1.15e5,8935,inactive
CG17637,DRSC11740,1.08e5,78600,58095,57240,6155,inactive

More records:
Knock-down of NetB (Netrin-B) [DRSC20262] resulted in: induced reporter light, run 1, well a = 1.51e5; induced reporter light, run 1, well b = 1.65e5; control promoter light, run 1, well a = 2.02e5; control promoter light, run 1, well b = 1.89e5; uninduced reporter light, run 1, well a = 10660; inactive. After knock-down of CtsF (Cathepsin F) [DRSC12056], the record shows induced reporter light, run 1, well a = 1.43e5; induced reporter light, run 1, well b = 99840; control promoter light, run 1, well a = 1.49e5; control promoter light, run 1, well b = 1.61e5; uninduced reporter light, run 1, well a = 10295; inactive. Against CtsF (Cathepsin F) [DRSC12195], the values are induced reporter light, run 1, well a = 1.59e5; induced reporter light, run 1, well b = 1.50e5; control promoter light, run 1, well a = 1.15e5; control promoter light, run 1, well b = 82155; uninduced reporter light, run 1, well a = 13028; inactive. Depletion of CtsF (Cathepsin F) [DRSC12196] gave: induced reporter light, run 1, well a = 1.38e5; induced reporter light, run 1, well b = 1.49e5; control promoter light, run 1, well a = 1.27e5; control promoter light, run 1, well b = 1.02e5; uninduced reporter light, run 1, well a = 8700; inactive. CG13872 [DRSC06431] scored induced reporter light, run 1, well a = 68340; induced reporter light, run 1, well b = 44255; control promoter light, run 1, well a = 43720; control promoter light, run 1, well b = 42945; uninduced reporter light, run 1, well a = 5505; inactive. Knock-down of CG7017 [DRSC10762] gave: induced reporter light, run 1, well a = 87590; induced reporter light, run 1, well b = 1.01e5; control promoter light, run 1, well a = 1.18e5; control promoter light, run 1, well b = 73680; uninduced reporter light, run 1, well a = 5200; inactive.

With knock-down of B52 [DRSC14121], the screen gave induced reporter light, run 1, well a = 1.82e5; induced reporter light, run 1, well b = 1.43e5; control promoter light, run 1, well a = 91900; control promoter light, run 1, well b = 97590; uninduced reporter light, run 1, well a = 11195; inactive. Depletion of CG5326 [DRSC13568] came out at: induced reporter light, run 1, well a = 65245; induced reporter light, run 1, well b = 65440; control promoter light, run 1, well a = 78250; control promoter light, run 1, well b = 75610; uninduced reporter light, run 1, well a = 9355; inactive. For CG5326 [DRSC15770], the values are induced reporter light, run 1, well a = 1.66e5; induced reporter light, run 1, well b = 1.69e5; control promoter light, run 1, well a = 1.94e5; control promoter light, run 1, well b = 1.95e5; uninduced reporter light, run 1, well a = 15215; inactive. Knock-down of Mpp6 (M-phase phosphoprotein 6) [DRSC03169] resulted in: induced reporter light, run 1, well a = 35525; induced reporter light, run 1, well b = 30285; control promoter light, run 1, well a = 34750; control promoter light, run 1, well b = 23245; uninduced reporter light, run 1, well a = 2180; inactive.
